Assay in all cases: log2 fold change, soluble protein after heating vs DMSO (PISA); higher = thermal stabilisation; K562 cells, 10 uM, 30 min; active = over 0.2 and 3.5 SD of the protein, either way, in both replicates (recomputed)
Compound in test [1]: NC(=O)Nc1cc(-c2cccc(F)c2)sc1C(=O)N[C@H]1CCCNC1
A digest of the protocol:
(§1)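 Soluble protein was defined as the supernatant after 21,000xg for 90 min. It came from K562 cells at 2×10^6 cells/mL given 10 μM compound for 30 min, heated in aliquots for 3 min across 48°C-58°C, pooled, and extracted in PBS with 0.5% NP-40 at 4°C, and was quantified by TMTpro 16plex LC-MS/MS with equalised channel sums. Thermal stability against control samples, from duplicates, is reported as log2 fold change.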

Protein sequences, listed by entry. Tags and fused reporters are not part of them. Lines headed by an entry give the natural chain unless they say otherwise; changes in a name come on top.
UniProt P01876, whole entry, looked up: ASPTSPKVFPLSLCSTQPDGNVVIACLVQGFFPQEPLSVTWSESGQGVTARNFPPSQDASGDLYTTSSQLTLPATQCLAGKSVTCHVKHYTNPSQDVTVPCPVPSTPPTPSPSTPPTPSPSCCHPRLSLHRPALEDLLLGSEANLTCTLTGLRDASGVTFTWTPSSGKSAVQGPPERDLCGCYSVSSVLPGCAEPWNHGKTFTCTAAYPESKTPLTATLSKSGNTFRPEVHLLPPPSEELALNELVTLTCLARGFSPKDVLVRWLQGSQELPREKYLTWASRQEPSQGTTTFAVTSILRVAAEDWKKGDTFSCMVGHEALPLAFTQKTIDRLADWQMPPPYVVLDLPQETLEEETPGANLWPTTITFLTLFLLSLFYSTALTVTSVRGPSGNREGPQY
UniProt O95373, whole entry, looked up: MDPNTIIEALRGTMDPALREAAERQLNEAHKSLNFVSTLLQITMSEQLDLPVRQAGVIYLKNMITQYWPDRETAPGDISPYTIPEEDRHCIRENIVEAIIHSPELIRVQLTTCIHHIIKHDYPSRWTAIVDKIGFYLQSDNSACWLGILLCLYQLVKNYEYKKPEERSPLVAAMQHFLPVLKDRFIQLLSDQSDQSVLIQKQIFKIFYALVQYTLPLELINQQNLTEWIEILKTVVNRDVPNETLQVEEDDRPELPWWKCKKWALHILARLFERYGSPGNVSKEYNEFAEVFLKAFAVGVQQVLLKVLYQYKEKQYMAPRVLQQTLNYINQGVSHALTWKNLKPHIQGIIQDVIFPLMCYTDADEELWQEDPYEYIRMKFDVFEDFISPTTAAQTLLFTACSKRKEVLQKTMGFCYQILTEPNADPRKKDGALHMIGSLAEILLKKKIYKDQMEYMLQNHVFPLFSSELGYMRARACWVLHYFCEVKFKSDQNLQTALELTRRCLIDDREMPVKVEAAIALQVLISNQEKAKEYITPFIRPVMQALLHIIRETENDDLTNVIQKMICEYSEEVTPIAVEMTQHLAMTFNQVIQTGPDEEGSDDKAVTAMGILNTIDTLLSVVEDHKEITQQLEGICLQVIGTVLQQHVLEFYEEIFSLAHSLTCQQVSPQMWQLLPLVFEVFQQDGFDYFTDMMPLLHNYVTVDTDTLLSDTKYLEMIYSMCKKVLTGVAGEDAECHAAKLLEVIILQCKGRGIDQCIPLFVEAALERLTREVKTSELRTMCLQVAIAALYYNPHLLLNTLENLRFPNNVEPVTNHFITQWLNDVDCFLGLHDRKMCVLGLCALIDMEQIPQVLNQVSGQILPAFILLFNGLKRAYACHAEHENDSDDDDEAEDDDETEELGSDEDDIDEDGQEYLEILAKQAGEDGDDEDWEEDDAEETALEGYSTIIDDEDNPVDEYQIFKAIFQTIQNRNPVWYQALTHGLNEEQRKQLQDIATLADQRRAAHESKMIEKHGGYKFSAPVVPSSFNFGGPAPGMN
UniProt Q8IWB1: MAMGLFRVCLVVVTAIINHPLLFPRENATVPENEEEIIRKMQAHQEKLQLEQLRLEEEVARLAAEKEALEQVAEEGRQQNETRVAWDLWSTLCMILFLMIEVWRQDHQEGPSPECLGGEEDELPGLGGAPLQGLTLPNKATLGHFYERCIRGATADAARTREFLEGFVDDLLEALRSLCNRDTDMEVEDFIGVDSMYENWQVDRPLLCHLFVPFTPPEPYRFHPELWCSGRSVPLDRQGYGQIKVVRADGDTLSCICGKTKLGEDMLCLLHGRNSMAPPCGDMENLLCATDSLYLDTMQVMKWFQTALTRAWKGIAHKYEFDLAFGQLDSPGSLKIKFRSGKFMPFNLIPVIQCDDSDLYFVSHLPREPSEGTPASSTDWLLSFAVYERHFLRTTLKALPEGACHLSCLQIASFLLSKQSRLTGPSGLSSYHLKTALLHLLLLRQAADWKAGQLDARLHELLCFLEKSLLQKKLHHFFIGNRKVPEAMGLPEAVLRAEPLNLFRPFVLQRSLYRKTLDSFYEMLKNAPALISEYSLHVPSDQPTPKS
UniProt P19823: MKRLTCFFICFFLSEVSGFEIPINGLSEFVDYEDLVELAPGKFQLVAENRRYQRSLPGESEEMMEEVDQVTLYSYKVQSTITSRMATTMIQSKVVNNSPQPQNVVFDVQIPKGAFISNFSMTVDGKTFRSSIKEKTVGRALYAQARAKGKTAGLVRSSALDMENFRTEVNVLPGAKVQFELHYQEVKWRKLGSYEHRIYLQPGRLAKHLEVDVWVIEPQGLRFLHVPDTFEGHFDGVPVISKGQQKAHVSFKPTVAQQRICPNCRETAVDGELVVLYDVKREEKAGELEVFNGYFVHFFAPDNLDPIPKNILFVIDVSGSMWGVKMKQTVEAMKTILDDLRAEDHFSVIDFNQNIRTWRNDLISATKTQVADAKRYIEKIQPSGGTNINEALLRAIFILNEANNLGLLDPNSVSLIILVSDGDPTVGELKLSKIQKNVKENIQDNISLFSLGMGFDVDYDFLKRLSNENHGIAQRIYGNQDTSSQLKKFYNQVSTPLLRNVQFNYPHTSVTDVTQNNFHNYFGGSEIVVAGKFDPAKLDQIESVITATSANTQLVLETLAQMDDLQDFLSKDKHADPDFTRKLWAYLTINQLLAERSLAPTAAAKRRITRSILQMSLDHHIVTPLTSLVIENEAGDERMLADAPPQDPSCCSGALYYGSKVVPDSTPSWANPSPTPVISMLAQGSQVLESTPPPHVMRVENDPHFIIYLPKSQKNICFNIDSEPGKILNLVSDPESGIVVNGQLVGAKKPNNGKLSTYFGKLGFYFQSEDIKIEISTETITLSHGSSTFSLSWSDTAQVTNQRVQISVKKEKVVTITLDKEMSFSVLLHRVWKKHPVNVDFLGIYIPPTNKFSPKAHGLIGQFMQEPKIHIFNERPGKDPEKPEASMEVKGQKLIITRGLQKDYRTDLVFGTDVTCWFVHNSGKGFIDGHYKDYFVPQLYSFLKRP
UniProt Q9ULR0: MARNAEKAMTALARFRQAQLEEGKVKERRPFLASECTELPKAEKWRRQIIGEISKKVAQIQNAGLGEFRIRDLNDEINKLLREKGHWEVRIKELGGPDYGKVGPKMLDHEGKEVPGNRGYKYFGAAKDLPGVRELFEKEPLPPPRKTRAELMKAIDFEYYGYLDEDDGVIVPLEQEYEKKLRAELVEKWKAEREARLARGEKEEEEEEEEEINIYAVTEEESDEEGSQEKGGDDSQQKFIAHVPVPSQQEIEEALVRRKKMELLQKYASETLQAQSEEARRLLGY
UniProt Q96G21: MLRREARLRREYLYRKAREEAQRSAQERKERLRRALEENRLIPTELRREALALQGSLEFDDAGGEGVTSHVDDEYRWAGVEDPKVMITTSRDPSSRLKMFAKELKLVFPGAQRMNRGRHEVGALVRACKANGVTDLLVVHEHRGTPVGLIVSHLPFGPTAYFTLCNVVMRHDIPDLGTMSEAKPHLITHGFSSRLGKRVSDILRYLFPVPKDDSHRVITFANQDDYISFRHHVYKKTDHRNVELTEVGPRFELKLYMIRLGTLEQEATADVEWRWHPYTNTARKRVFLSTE
UniProt P14316: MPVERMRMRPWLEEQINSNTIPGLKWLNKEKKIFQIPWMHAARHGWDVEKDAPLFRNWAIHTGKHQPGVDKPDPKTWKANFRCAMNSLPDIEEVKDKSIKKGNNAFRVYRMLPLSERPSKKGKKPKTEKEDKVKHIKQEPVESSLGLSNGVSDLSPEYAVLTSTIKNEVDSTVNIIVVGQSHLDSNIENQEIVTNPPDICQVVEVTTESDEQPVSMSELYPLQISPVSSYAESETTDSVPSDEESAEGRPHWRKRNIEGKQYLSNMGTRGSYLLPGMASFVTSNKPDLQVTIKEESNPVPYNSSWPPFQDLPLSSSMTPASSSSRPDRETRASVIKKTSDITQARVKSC
UniProt Q9NRY2: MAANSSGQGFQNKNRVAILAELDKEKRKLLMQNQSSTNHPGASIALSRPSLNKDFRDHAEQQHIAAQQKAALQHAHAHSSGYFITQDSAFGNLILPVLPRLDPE
UniProt Q9UK53: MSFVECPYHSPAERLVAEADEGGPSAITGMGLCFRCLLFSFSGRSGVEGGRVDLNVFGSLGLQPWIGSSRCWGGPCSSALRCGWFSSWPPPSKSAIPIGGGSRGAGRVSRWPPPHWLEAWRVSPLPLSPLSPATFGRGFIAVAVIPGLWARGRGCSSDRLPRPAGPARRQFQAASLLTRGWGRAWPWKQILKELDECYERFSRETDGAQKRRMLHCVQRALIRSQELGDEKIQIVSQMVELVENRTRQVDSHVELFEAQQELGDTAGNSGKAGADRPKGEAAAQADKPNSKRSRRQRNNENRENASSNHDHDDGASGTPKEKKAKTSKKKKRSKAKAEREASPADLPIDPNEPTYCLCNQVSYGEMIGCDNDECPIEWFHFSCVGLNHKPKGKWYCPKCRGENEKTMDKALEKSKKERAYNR
UniProt Q08334: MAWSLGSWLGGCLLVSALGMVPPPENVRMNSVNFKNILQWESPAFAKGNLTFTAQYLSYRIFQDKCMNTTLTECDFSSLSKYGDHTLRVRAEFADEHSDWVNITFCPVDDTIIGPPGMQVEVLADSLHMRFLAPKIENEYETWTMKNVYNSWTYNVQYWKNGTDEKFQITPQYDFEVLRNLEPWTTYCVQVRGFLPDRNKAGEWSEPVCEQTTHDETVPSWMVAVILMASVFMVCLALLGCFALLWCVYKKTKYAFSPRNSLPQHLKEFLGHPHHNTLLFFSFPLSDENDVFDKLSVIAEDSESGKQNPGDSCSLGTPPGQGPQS
UniProt O14732: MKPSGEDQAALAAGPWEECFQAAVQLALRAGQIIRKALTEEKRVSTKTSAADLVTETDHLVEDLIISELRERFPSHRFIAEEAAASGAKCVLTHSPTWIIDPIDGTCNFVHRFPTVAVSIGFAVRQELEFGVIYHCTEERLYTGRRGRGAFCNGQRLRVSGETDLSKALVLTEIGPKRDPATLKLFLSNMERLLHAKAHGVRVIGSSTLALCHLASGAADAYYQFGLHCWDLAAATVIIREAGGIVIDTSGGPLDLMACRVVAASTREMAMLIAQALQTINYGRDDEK
UniProt Q9H2S9: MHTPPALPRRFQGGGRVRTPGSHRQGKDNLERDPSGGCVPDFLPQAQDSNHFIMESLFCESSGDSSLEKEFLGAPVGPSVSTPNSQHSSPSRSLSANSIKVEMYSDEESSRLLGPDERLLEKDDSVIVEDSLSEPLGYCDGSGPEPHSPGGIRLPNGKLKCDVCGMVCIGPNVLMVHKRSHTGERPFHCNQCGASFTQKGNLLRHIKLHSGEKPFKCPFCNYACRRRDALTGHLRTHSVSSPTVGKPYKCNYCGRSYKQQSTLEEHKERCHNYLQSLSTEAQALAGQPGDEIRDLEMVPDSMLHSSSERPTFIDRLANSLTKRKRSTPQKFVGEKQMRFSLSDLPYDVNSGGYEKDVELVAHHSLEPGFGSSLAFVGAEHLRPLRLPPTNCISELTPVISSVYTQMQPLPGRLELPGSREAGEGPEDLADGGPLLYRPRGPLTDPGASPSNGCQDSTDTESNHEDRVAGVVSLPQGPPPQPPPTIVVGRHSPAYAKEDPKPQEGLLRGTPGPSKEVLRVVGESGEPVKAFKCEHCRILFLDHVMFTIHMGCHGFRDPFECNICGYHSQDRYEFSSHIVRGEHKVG
UniProt Q6P9B9, whole entry, looked up: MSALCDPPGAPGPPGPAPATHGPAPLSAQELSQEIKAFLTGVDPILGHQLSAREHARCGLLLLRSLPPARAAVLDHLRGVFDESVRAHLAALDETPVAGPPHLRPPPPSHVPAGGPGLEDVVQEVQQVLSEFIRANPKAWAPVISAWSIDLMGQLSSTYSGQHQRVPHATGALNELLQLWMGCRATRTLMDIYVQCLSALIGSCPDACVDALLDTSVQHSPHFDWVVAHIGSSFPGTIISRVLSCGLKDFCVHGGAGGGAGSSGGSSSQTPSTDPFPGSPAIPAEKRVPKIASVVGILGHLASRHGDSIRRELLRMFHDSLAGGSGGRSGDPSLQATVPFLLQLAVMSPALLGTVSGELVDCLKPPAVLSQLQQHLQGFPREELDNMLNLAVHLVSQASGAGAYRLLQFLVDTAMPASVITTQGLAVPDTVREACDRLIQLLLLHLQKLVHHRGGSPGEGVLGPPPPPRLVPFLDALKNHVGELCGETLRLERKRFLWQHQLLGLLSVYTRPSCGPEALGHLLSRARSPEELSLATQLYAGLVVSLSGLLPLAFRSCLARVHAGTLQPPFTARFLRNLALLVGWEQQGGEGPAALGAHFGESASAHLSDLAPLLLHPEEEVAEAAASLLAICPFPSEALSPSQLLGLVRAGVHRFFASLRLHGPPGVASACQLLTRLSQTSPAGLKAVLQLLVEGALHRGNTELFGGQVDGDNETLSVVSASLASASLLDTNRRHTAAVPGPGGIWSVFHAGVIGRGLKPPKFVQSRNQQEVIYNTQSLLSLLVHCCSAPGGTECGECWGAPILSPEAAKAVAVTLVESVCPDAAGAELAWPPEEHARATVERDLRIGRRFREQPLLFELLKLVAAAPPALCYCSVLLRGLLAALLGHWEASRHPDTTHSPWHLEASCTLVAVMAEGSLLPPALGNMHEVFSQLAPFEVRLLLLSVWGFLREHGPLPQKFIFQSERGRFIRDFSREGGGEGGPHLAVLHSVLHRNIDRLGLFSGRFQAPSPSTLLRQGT

Compound in test [2]: NC(=O)c1cnc(N[C@@H]2CCCC[C@@H]2N)nc1Nc1cccc(-n2nccn2)c1
In short, it runs like this: as §1

Compound in test [3]: NC1(c2ccc(-c3nc4ccn5c(=O)[nH]nc5c4cc3-c3ccccc3)cc2)CCC1
In short, it runs like this:
as §1

Compound in test [4]: NCC(=O)Nc1ccc(-n2nc(C(F)(F)F)cc2-c2ccc3c(ccc4ccccc43)c2)cc1
A digest of the protocol:
as §1

Compound in test [5]: Nc1ccccc1NC(=O)c1ccc(CNC(=O)OCc2cccnc2)cc1 [entinostat]
In short, it runs like this: as §1

Compound in test [6]: O=C(CCCCCCC(=O)Nc1ccccc1)NO [vorinostat]
In short, it runs like this: as §1

Compound in test [7]: O=C(CCCCCCNC(=O)c1cnc(N(c2ccccc2)c2ccccc2Cl)nc1)NO [citarinostat]
In short, it runs like this:
as §1

Compound in test [8]: O=C(O)c1ccc2c(c1)nc(Nc1cccc(Cl)c1)c1ccncc12 [silmitasertib]
In short, it runs like this:
as §1

Compound in test [9]: O=C1NC(=O)C(c2cnc3ccccn23)=C1c1cn2c3c(cc(F)cc13)CN(C(=O)N1CCCCC1)CC2
A digest of the protocol:
as §1

Compound in test [10]: c1cc(OCCN2CCCCC2)cc(-c2n[nH]c3ccc(-c4nnc[nH]4)cc23)c1
In short, it runs like this:
as §1

This is one part of the list.

In the case of IGHA1 (UniProt P01876), the log2 fold change in test [1] was inactive: 1.86; in test [2] it was inactive: 0.746; in test [3] it was inactive: 0.031; in test [4], inactive: -0.122; in [5] it was inactive: 0.007; in test [6] it was inactive: -0.002. Besides, the log2 fold change in [7] was inactive: 0.567; in [8] it was inactive: 0.921; in test [9], inactive: 0.03; in test [10], inactive: 0.018.

Regarding IPO7 (UniProt O95373), the log2 fold change in test [1] is inactive: 0.024; in test [2], inactive: -0.099; in test [3], inactive: -0.145; in test [4], inactive: -0.069; in [5], inactive: 0.036; in test [6] it was inactive: 0.055. In addition, the log2 fold change was inactive: 0.056 in [7], inactive: 0.015 in [8], inactive: -0.004 in test [9] and inactive: -0.09 in test [10].

ITPRIP (UniProt Q8IWB1): the log2 fold change in test [1] was inactive: -0.041; in test [2], inactive: -0.031; in [3] it was active: -0.373; in test [4] it was inactive: -0.021; in test [5], inactive: -0.01; in test [6], inactive: -0.08. Besides, the log2 fold change in test [7] is inactive: -0.076; in test [8], inactive: -0.009; in test [9], inactive: 0.019; in test [10] it was inactive: -0.06.

Regarding IMMT isoform 2 (UniProt Q16891), the log2 fold change in [1] was inactive: 0; in [2] it was inactive: -0.045; in test [3], inactive: -0.044; in [4], inactive: -0.066; in [5], inactive: 0.039; in [6], inactive: 0.159. The log2 fold change in [7] was inactive: 0.042; in test [8], inactive: -0.066; in [9] it was inactive: 0.064; in test [10], inactive: 0.008.

Consider INTS13 (UniProt Q9NVM9), for which the log2 fold change is inactive: -0.032 in [1]; inactive: 0.012 in test [2]; inactive: -0.161 in [3]; inactive: -0.015 in test [4]; inactive: 0.047 in [5]; inactive: 0.046 in test [6]. Besides, the log2 fold change in test [7] is inactive: 0.081; in test [8], inactive: -0.024; in test [9], inactive: -0.072; in test [10] it was inactive: -0.028.

On to IMMT isoform 4 (UniProt Q16891), for which the log2 fold change was inactive: -0.022 in test [1]; inactive: -0.083 in test [2]; inactive: -0.132 in test [3]; inactive: -0.056 in [4]; inactive: 0.021 in test [5]; inactive: 0.008 in test [6]. For the same target, the log2 fold change in test [7] was inactive: 0.007; in test [8], inactive: -0.038; in [9] it was inactive: -0.031; in [10], inactive: -0.035.

In the case of ITIH2 (UniProt P19823), the log2 fold change was inactive: -0.115 in [1]; inactive: 0.016 in test [2]; inactive: 0.148 in test [3]; inactive: 0.035 in test [4]; inactive: -0.005 in [5]; inactive: 0.003 in test [6]. The log2 fold change in test [7] was inactive: -0.01; in [8] it was inactive: 0.122; in test [9] it was inactive: 0.095; in [10] it was inactive: 0.583.

Regarding ISY1 isoform 1 (UniProt Q9ULR0), the log2 fold change in test [1] is inactive: 0.057; in test [2] it was inactive: 0.03; in [3], inactive: 0.043; in [4], inactive: 0.035; in test [5], inactive: -0.024; in [6], inactive: -0.007. For the same target, the log2 fold change is inactive: -0.041 in test [7], inactive: 0.059 in test [8], inactive: 0.029 in test [9] and inactive: -0.069 in [10].

IMP4 (UniProt Q96G21): the log2 fold change in test [1] is inactive: 0.12; in [2], inactive: 0.007; in [5] it was inactive: -0.175; in test [6] it was inactive: -0.039.

As for IRF2 (UniProt P14316), the log2 fold change is inactive: 0.01 in test [1]; inactive: -0.036 in [2]; inactive: -0.072 in test [3]; inactive: 0.092 in test [4]; inactive: -0.084 in test [5]; inactive: 0.087 in test [6]. Besides, the log2 fold change in test [8] is inactive: 0.02.

For the target INIP (UniProt Q9NRY2), the log2 fold change is inactive: -0.024 in test [1]; inactive: 0.046 in [3]; inactive: 0.141 in test [4]; inactive: 0.023 in test [5]; inactive: -0.004 in test [7]; inactive: -0.028 in test [8]. Besides, the log2 fold change was inactive: -0.16 in test [9] and inactive: -0.035 in [10].

ITIH3 (UniProt Q06033): the log2 fold change in test [1] was inactive: -0.067; in test [2] it was inactive: 0.004; in test [3] it was inactive: 0.109; in test [4], inactive: 0.082; in test [5], inactive: 0.004; in [6], inactive: 0.093. For the same target, the log2 fold change in [7] was inactive: -0.016; in [8], inactive: 0.102; in [9] it was inactive: 0.057; in test [10] it was inactive: 0.317.

With ING1 (UniProt Q9UK53), the log2 fold change is inactive: -0.08 in [1]; inactive: -0.015 in test [2]; inactive: 0.441 in test [3]; inactive: 0.128 in test [5]; inactive: -0.058 in test [7]; inactive: -0.015 in [8]. In addition, the log2 fold change in [10] was inactive: -0.563.

With IL10RB (UniProt Q08334), the log2 fold change in test [1] was inactive: -0.113; in test [2], inactive: -0.121; in [4], inactive: -0.031; in [5], active: -0.431; in [6] it was inactive: 0.109; in test [7], inactive: 0.055. The log2 fold change is inactive: 0.062 in test [9] and inactive: -0.026 in [10].

In the case of IMPA2 (UniProt O14732), the log2 fold change in [1] is inactive: 0.115; in [2], inactive: 0.111; in test [3], inactive: 0.016; in test [4], inactive: -0.028; in test [5], inactive: 0.067; in test [6], inactive: 0.048. Besides, the log2 fold change was inactive: -0.173 in test [7], inactive: -0.034 in [8] and inactive: 0.793 in test [10].

On to IKZF4 (UniProt Q9H2S9), for which the log2 fold change in test [1] was inactive: -0.173; in test [2], inactive: 0.067; in test [4] it was inactive: -0.146; in test [5], inactive: 0.137; in [6], inactive: 0.06; in [9], inactive: -0.03.

Regarding INTS5 (UniProt Q6P9B9), the log2 fold change was inactive: 0.015 in test [1]; inactive: -0.116 in test [2]; inactive: -0.079 in [3]; inactive: -0.175 in [4]; inactive: 0.014 in test [5]; inactive: -0.006 in [8]. The log2 fold change in test [9] is inactive: -0.076.

The values are drawn from the supplement of paper PMC10849652.
